Laboratory results from PMC11915804, “In situ structures of the contractile nanomachine myophage Mu in both its extended and contracted states” (Journal of Virology, 2025).
No constants are given. Whether binding was seen depends on the method and setting. Binding calls can cover weak binding; strength is not graded here.

Key:
tail sheath protein gp39 [1] = target: T1, tail sheath protein gp39 (phage Mu, UniProt P79678 1-495); assay: cryo-EM structure; purified phage Mu virions in the contracted state: diluted 10-fold with 5 M urea, 2 h at 37°C, urea removed by ultrafiltration; baseplate, DNA and TMP lost; 3.6 Å (portal-adaptor), 3.8 Å (terminator-tail); both purified
T1 construct: tail sheath protein gp39 of myophage Mu, as it stands in the virion; Hexameric rings, 30 of them stacked in the tail; Model deposited here; source: phage Mu virions grown on E. coli (ATCC 23724), purified (PEG 8000/NaCl precipitation, CsCl gradient)
T1 sequence (looked up): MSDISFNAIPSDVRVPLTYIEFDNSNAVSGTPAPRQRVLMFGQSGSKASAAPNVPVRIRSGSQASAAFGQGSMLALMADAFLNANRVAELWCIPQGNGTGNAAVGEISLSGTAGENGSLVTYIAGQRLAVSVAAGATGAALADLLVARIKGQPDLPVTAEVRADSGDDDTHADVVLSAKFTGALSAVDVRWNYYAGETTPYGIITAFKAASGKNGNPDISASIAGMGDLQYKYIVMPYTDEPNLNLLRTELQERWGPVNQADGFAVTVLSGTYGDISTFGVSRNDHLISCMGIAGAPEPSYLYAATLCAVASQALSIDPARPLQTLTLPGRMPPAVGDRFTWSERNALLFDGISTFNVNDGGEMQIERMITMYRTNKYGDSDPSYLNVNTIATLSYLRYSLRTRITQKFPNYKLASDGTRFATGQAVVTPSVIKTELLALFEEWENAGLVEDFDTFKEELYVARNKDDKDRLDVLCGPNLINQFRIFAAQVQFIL

[2] = target: T2, tail tube protein gp40 (phage Mu) (UniProt P79679); assay: as above
T2 sequence: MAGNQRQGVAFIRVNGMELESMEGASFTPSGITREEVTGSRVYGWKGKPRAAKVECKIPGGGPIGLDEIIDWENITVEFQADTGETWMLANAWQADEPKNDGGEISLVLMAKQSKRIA

tail sheath protein gp39 [3] = target: T1, tail sheath protein gp39; assay: cryo-EM structure; purified phage Mu virions in the extended state (native phage) in phage buffer (10 mM MgCl2, 5 mM NaCl, 10 mM Tris-HCl, pH 7.4); icosahedral, symmetry-mismatch and local reconstruction; 3.2 Å (3-fold capsid), 3.4 Å (portal-adaptor), 3.5 Å (terminator-tail), 3.3 Å (baseplate); both purified
[4] = target: T2, tail tube protein gp40 (phage Mu); assay: as above
[5] = target: T3, spike protein gp45 (phage Mu) (UniProt Q9T1V4); assay: as above
T3 sequence: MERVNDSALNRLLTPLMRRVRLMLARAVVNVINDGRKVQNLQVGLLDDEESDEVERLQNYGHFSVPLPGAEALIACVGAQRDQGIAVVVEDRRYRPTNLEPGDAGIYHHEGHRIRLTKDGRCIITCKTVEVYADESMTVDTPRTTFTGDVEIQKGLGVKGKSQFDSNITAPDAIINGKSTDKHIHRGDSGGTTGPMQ

hub protein gp44 = target: T4, hub protein gp44 (phage Mu, UniProt P08558 1-379); assay: as above
T4 construct: baseplate hub protein gp44 of myophage Mu, as it stands in the virion; Trimer; Model deposited here; source: phage Mu virions grown on E. coli (ATCC 23724), purified (PEG 8000/NaCl precipitation, CsCl gradient)
T4 sequence (looked up): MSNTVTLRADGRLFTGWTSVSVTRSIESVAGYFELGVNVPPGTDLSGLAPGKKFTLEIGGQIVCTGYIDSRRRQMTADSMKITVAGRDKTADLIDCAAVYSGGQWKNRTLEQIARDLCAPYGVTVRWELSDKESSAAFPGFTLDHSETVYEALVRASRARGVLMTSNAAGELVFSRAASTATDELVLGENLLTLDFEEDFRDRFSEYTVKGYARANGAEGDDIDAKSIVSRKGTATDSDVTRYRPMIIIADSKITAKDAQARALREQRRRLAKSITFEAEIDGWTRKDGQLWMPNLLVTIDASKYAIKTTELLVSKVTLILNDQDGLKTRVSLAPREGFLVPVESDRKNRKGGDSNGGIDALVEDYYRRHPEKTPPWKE

Measured: binding

tail terminator protein gp37 (phage Mu)
binds: tail sheath protein gp39 [1] | [2] | tail sheath protein gp39 [3] | [4]

tape measure protein (TMP) gp42 (phage Mu)
binds: [5] | hub protein gp44
